# Source: patent US6995178B2, “Insecticidal anthranilamides” (E. I. du Pont de Nemours and Company, priority 2000, dated 2006)
# Some entries share one result that the patent states for a list of compounds. Some compounds share one range, which may span the group rather than tell each member.
# Tested on: Diamondback Moth (DBM)—Plutella Xylostella
# Experiment: Diamondback Moth (DBM) plant feeding damage test on radish plants
# Assay type: in vivo
# Conditions: sprayed at 250 ppm, 1 mL per test unit, 12-14 day old radish plant pre-infested with 10-15 neonate larvae, held 6 days at 25° C. and 70% relative humidity, replicated three times
structure (smiles),measurement,value
CC(C)NC(=O)c1c(Cl)cccc1NC(=O)c1ccccc1C(F)(F)F [Compound 2],"Plant feeding damage visually assessed on a scale of 0-10 (excellent levels of plant protection: ratings of 0-1, 10% or less feeding damage)",0-1
Cc1cccc(C(=O)NC(C)C)c1NC(=O)c1cccc([N+](=O)[O-])c1 [Compound 6],"Plant feeding damage visually assessed on a scale of 0-10 (excellent levels of plant protection: ratings of 0-1, 10% or less feeding damage)",0-1
Cc1cccc(C(=O)NC(C)C)c1NC(=O)c1ccc(C(F)(F)F)cc1-n1ccc(Br)n1 [Compound 219],"Plant feeding damage visually assessed on a scale of 0-10 (excellent levels of plant protection: ratings of 0-1, 10% or less feeding damage)",0-1
Cc1cccc(NC(=O)c2cc(C(F)(F)F)nn2-c2cnccn2)c1C(=O)NC(C)C [Compound D72],"Plant feeding damage visually assessed on a scale of 0-10 (excellent levels of plant protection: ratings of 0-1, 10% or less feeding damage)",0-1
Cc1cccc(C(=O)NC(C)C)c1NC(=O)c1sc(C(C)(C)O)nc1C [Compound G5],"Plant feeding damage visually assessed on a scale of 0-10 (excellent levels of plant protection: ratings of 0-1, 10% or less feeding damage)",0-1
CC(C)NC(=O)c1cccc(Cl)c1NC(=O)c1cc(C(F)(F)F)nn1C(C)C [Compound D53],"Plant feeding damage visually assessed on a scale of 0-10 (excellent levels of plant protection: ratings of 0-1, 10% or less feeding damage)",0-1
Cc1cccc(C(=S)NC(C)C)c1NC(=O)c1ccc(C(F)(F)F)nc1C [Compound B74],"Plant feeding damage visually assessed on a scale of 0-10 (excellent levels of plant protection: ratings of 0-1, 10% or less feeding damage)",0-1
CC(C)(C)NC(=O)c1cccc(Cl)c1NC(=O)c1cc(C(F)(F)C(F)(F)F)nn1-c1ccccc1 [Compound D42],"Plant feeding damage visually assessed on a scale of 0-10 (excellent levels of plant protection: ratings of 0-1, 10% or less feeding damage)",0-1
Cc1cccc(C(=O)NC(C)C)c1NC(=O)c1ccc2c(c1)OC(F)(F)C(F)(F)O2 [Compound 198],"Plant feeding damage visually assessed on a scale of 0-10 (excellent levels of plant protection: ratings of 0-1, 10% or less feeding damage)",0-1
CCc1nc(C(F)(F)C(F)(F)F)ccc1C(=O)Nc1c(C)cccc1C(=O)NC(C)C [Compound B63],"Plant feeding damage visually assessed on a scale of 0-10 (excellent levels of plant protection: ratings of 0-1, 10% or less feeding damage)",0-1
Cc1cccc(C(=O)NC(C)C)c1NC(=O)c1ccc(C(F)(F)F)cc1-c1cccs1 [Compound 240],"Plant feeding damage visually assessed on a scale of 0-10 (excellent levels of plant protection: ratings of 0-1, 10% or less feeding damage)",0-1
Cc1cccc(C(=O)NC(C)C)c1NC(=O)c1ccc([N+](=O)[O-])cc1 [Compound 69],"Plant feeding damage visually assessed on a scale of 0-10 (excellent levels of plant protection: ratings of 0-1, 10% or less feeding damage)",0-1
CC(C)NC(=O)c1cccc(Cl)c1NC(=O)c1cc(C(F)(F)F)nn1-c1ccc(F)cc1F [Compound D95],"Plant feeding damage visually assessed on a scale of 0-10 (excellent levels of plant protection: ratings of 0-1, 10% or less feeding damage)",0-1
Cc1cccc(C(=O)NC(C)C)c1NC(=O)c1cc(C(F)(F)F)nn1CC(C)C [Compound D88],"Plant feeding damage visually assessed on a scale of 0-10 (excellent levels of plant protection: ratings of 0-1, 10% or less feeding damage)",0-1
CCNC(=O)c1cccc(C)c1NC(=O)c1cc(C(F)(F)F)nn1-c1ccccc1Cl [Compound D124],"Plant feeding damage visually assessed on a scale of 0-10 (excellent levels of plant protection: ratings of 0-1, 10% or less feeding damage)",0-1
CC(C)NC(=O)c1cccc(Br)c1NC(=O)c1cc(C(F)(F)F)nn1-c1ccccc1Cl [Compound D77],"Plant feeding damage visually assessed on a scale of 0-10 (excellent levels of plant protection: ratings of 0-1, 10% or less feeding damage)",0-1
CC(C)NC(=O)c1cccc(I)c1NC(=O)c1cc(C2CC2)nn1C [Compound D50],"Plant feeding damage visually assessed on a scale of 0-10 (excellent levels of plant protection: ratings of 0-1, 10% or less feeding damage)",0-1
Cc1cccc(C(=O)NC(C)(C)C)c1NC(=O)c1ccc(C#N)cc1 [Compound 79],"Plant feeding damage visually assessed on a scale of 0-10 (excellent levels of plant protection: ratings of 0-1, 10% or less feeding damage)",0-1
CC(C)NC(=O)c1cccc(Cl)c1NC(=O)c1cc(C(F)(F)F)nn1-c1ccccc1F [Compound D47],"Plant feeding damage visually assessed on a scale of 0-10 (excellent levels of plant protection: ratings of 0-1, 10% or less feeding damage)",0-1
Cc1cc(C(F)(F)F)ccc1C(=O)Nc1c(C)cccc1C(=O)NC(C)CO (stereo not shown) [Compound 213],"Plant feeding damage visually assessed on a scale of 0-10 (excellent levels of plant protection: ratings of 0-1, 10% or less feeding damage)",0-1
Cc1cccc(C(=O)NC(C)C)c1NC(=O)c1ccc(Br)cc1C(=O)N(C)C [Compound 203],"Plant feeding damage visually assessed on a scale of 0-10 (excellent levels of plant protection: ratings of 0-1, 10% or less feeding damage)",0-1
CC(C)NC(=O)c1c(I)cccc1NC(=O)c1cc(C2CC2)nn1C [Compound D51],"Plant feeding damage visually assessed on a scale of 0-10 (excellent levels of plant protection: ratings of 0-1, 10% or less feeding damage)",0-1
Cc1nc(C(F)(F)F)ccc1C(=O)Nc1c(Cl)cccc1C(=O)NC(C)(C)C [Compound B4],"Plant feeding damage visually assessed on a scale of 0-10 (excellent levels of plant protection: ratings of 0-1, 10% or less feeding damage)",0-1
CCNC(=O)c1cccc(C)c1NC(=O)c1ccc(OC(F)(F)F)cc1 [Compound 63],"Plant feeding damage visually assessed on a scale of 0-10 (excellent levels of plant protection: ratings of 0-1, 10% or less feeding damage)",0-1
C=CC(C)NC(=O)c1cccc(C)c1NC(=O)c1ccc(C(F)(F)F)cc1C (stereo not shown) [Compound 195],"Plant feeding damage visually assessed on a scale of 0-10 (excellent levels of plant protection: ratings of 0-1, 10% or less feeding damage)",0-1
Cc1cc(Br)cc(C(=O)NC(C)C)c1NC(=O)c1ccc(C(F)(F)F)nc1C [Compound B67],"Plant feeding damage visually assessed on a scale of 0-10 (excellent levels of plant protection: ratings of 0-1, 10% or less feeding damage)",0-1
CC(C)NC(=O)c1cccc(Cl)c1NC(=O)c1cc(C(F)(F)F)nn1-c1c(Cl)cncc1Cl [Compound D114],"Plant feeding damage visually assessed on a scale of 0-10 (excellent levels of plant protection: ratings of 0-1, 10% or less feeding damage)",0-1
CCOC(=O)c1cc(C)n(-c2cc(C(F)(F)F)ccc2C(=O)Nc2c(Cl)cccc2C(=O)NC(C)C)n1 [Compound 235],"Plant feeding damage visually assessed on a scale of 0-10 (excellent levels of plant protection: ratings of 0-1, 10% or less feeding damage)",0-1
Cc1cccc(C(=O)NC(C)CC#N)c1NC(=O)c1ccc(C(F)(F)F)nc1C (stereo not shown) [Compound B25],"Plant feeding damage visually assessed on a scale of 0-10 (excellent levels of plant protection: ratings of 0-1, 10% or less feeding damage)",0-1
CCc1ccccc1-n1nc(C(F)(F)F)cc1C(=O)Nc1c(C)cccc1C(=O)NC(C)C [Compound D96],"Plant feeding damage visually assessed on a scale of 0-10 (excellent levels of plant protection: ratings of 0-1, 10% or less feeding damage)",0-1
Cc1cccc(C(=O)NC(C)C)c1NC(=O)c1cnc(C(F)(F)F)nc1N(C)C [Compound C4],"Plant feeding damage visually assessed on a scale of 0-10 (excellent levels of plant protection: ratings of 0-1, 10% or less feeding damage)",0-1
Cc1cc(C(=O)Nc2cccc(F)c2C(=O)NC(C)C)n(-c2ccccc2)n1 [Compound D14],"Plant feeding damage visually assessed on a scale of 0-10 (excellent levels of plant protection: ratings of 0-1, 10% or less feeding damage)",0-1
Cc1cccc(C(=O)NC(C)C)c1NC(=O)c1ccc(OCC(F)(F)F)nc1C [Compound B50],"Plant feeding damage visually assessed on a scale of 0-10 (excellent levels of plant protection: ratings of 0-1, 10% or less feeding damage)",0-1
Cc1cc(C(F)(F)F)ccc1C(=O)Nc1c(C)cccc1C(=O)NC(C)CS(C)(=O)=O (stereo not shown) [Compound 205],"Plant feeding damage visually assessed on a scale of 0-10 (excellent levels of plant protection: ratings of 0-1, 10% or less feeding damage)",0-1
Cc1cccc(C(=O)NC(C)C)c1NC(=O)c1cc(C(F)(F)C(F)(F)F)nn1-c1ccccc1 [Compound D40],"Plant feeding damage visually assessed on a scale of 0-10 (excellent levels of plant protection: ratings of 0-1, 10% or less feeding damage)",0-1
CCc1nc(C2CC2)ncc1C(=O)Nc1c(C)cccc1C(=O)NC(C)C [Compound C8],"Plant feeding damage visually assessed on a scale of 0-10 (excellent levels of plant protection: ratings of 0-1, 10% or less feeding damage)",0-1
Cc1cccc(C(=O)NC(C)C)c1NC(=O)c1ccc(Cl)nc1C [Compound B29],"Plant feeding damage visually assessed on a scale of 0-10 (excellent levels of plant protection: ratings of 0-1, 10% or less feeding damage)",0-1
Cc1cccc(C(=O)NC(C)C)c1NC(=O)c1ccc(C(F)(F)F)cc1F [Compound 147],"Plant feeding damage visually assessed on a scale of 0-10 (excellent levels of plant protection: ratings of 0-1, 10% or less feeding damage)",0-1
Cc1cccc(NC(=O)c2cc(C(F)(F)F)nn2-c2ccncc2)c1C(=O)NC(C)C [Compound D73],"Plant feeding damage visually assessed on a scale of 0-10 (excellent levels of plant protection: ratings of 0-1, 10% or less feeding damage)",0-1
CCNC(=O)c1cccc(C(F)(F)F)c1NC(=O)c1cc(C(F)(F)F)nn1-c1ccccc1 [Compound D67],"Plant feeding damage visually assessed on a scale of 0-10 (excellent levels of plant protection: ratings of 0-1, 10% or less feeding damage)",0-1
